Reference: PMC6503114 (Frontiers in Cellular and Infection Microbiology, 2019)

Experiment: peptide made by a vendor (Fmoc solid-phase peptide synthesis)
Details: whole synthesis, reverse phase analytical chromatography on DeltaPak 5 μm C18 100A (3.9 × 150 mm) column

Protegrin 1
purity (crude or final not stated): 99%
